These results are taken from publication doi:10.1101/2022.12.06.519310.

Chains of the proteins cited; added tags and fusions are not shown.
UniProt Q9UBL3: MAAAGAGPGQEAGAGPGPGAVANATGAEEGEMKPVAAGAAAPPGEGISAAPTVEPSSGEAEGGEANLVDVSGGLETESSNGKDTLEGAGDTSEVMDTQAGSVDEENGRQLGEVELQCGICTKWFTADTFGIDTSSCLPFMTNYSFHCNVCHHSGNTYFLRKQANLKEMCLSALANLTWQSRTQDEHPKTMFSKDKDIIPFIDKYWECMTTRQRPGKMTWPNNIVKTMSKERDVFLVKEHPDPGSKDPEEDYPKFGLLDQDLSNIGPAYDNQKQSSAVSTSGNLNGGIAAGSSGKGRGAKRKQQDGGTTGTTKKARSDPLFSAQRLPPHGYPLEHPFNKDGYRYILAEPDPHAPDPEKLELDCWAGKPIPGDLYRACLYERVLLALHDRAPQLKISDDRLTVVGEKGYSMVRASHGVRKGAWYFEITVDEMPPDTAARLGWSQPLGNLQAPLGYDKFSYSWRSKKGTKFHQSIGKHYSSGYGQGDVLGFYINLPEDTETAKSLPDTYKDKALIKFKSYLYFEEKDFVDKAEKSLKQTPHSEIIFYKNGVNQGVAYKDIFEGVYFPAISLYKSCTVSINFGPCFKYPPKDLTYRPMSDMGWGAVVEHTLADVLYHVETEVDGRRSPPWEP
UniProt Q15291: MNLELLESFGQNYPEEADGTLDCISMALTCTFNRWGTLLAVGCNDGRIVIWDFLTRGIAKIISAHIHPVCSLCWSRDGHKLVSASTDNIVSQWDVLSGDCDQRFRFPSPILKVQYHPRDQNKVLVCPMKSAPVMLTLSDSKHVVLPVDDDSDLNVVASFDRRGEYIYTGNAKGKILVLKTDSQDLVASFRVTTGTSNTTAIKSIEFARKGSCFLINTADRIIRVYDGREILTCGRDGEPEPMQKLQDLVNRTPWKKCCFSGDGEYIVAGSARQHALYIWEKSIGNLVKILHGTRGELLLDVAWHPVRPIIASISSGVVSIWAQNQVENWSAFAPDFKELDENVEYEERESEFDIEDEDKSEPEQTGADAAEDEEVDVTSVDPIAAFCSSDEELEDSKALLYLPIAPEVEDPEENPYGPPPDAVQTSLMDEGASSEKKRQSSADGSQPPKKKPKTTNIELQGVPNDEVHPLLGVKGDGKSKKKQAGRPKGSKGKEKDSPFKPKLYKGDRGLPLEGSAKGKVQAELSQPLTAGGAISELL

Results are given in words; binding and its absence hold for the method and conditions named. In cells and extracts the contact can be indirect. Some binding calls cover weakened binding; strength is not graded here.

In experiment [1] the target is T1, biotinylated H3 (1-10) unmodified peptide.
T1 sequence (peptide, biotin (position not stated)): ARTKQTARKS
Description: pull-down.

The target in experiment [2] is T2, biotinylated H3 (1-10) Q5ser peptide.
T2 sequence (peptide, serotonylated glutamine at 5 (Q5ser); biotin (position not stated)): ARTKQTARKS
Description: pull-down.

Consider “ASH2L, endogenous in HeLa nuclear extract (from UniProt Q9UBL3 1-628)”, for which the binding result in experiment [1] and in experiment [2] was “binds” each time.

For the substance “RBBP5, endogenous in HeLa nuclear extract (from UniProt Q15291 1-538)”, the binding result in experiment [1] and in experiment [2] was “binds” throughout.
